Data reported in patent US8349835B2, “Aromatic ring fused triazine derivatives and uses thereof” (Shenyang Pharmaceutical University, priority 2008, dated 2013).
For at least one compound, name, drawing or mass did not settle the structure.

Test system: Rat aortic ring
Assay: Rat Aortic Ring Assay
Type: cell-based
Settings: observed on the sixth day
Source text: Rat Aortic Ring Assay • 1) 6 week old SD […] (Sprague Dawley) were selected for the experiments. Cleaned abdominal skin with 75% ethanol to disinfect, and then anesthetized the mice with ether, • 2) Carefully removed the abdominal aortas and transferred the aortas to normal saline. Excessive vascular tissues were carefully removed with scissors. • 3) The aortas were rinsed with normal saline until no blood stain remained. • 4) Sectioned the aortas into one millimeter depth arterial slices with ophthalmological scissors. • 5) Add 50 μL pre-thawed Matrigel to each well of the pre-cooled 96 well cell culture plates, and embedded the ring-shaped mouse aortas in collagen gel. • 6) Incubated for 60 minutes at 37° C. to solidificate the gel. • 7) Added DMEM culture solution containing 10% FBS, along with different concentrations of the selected compounds into the wells and cultured in the incubator. Every compound was repeated in no less than 3 wells. • 8) Replaced with the fresh medium and changed the medicine once on the third day. • 9) Took out the pates on the sixth day, and observed the vascular growth with Microscope (OLYMPUS, DP70, Japan) and took photographs(×100). Randomly chose 3 arterial rings to photograph and calculated the area covered by micro-vascular with Image Pro Plus software. The inhibition rate is calculated as: […]

SMILES: CCOc1cc2nnnc(Nc3ccc(OC(F)(F)F)cc3)c2cc1OC [Example 37, 6-methoxy-7-ethoxy-4-(4-trifluoromethoxyanilino)-1,2,3-benzotriazine]
- Rat Aortic Ring Assay (10 ug/ml), result in words: Inhibition was strong in the first 3 days, and weak in later 4 days.
